Binding data for three substances are collected here from article PMC10778711.

The chains behind the UniProt entries cited, without tags or fusion partners.
UniProt P49792: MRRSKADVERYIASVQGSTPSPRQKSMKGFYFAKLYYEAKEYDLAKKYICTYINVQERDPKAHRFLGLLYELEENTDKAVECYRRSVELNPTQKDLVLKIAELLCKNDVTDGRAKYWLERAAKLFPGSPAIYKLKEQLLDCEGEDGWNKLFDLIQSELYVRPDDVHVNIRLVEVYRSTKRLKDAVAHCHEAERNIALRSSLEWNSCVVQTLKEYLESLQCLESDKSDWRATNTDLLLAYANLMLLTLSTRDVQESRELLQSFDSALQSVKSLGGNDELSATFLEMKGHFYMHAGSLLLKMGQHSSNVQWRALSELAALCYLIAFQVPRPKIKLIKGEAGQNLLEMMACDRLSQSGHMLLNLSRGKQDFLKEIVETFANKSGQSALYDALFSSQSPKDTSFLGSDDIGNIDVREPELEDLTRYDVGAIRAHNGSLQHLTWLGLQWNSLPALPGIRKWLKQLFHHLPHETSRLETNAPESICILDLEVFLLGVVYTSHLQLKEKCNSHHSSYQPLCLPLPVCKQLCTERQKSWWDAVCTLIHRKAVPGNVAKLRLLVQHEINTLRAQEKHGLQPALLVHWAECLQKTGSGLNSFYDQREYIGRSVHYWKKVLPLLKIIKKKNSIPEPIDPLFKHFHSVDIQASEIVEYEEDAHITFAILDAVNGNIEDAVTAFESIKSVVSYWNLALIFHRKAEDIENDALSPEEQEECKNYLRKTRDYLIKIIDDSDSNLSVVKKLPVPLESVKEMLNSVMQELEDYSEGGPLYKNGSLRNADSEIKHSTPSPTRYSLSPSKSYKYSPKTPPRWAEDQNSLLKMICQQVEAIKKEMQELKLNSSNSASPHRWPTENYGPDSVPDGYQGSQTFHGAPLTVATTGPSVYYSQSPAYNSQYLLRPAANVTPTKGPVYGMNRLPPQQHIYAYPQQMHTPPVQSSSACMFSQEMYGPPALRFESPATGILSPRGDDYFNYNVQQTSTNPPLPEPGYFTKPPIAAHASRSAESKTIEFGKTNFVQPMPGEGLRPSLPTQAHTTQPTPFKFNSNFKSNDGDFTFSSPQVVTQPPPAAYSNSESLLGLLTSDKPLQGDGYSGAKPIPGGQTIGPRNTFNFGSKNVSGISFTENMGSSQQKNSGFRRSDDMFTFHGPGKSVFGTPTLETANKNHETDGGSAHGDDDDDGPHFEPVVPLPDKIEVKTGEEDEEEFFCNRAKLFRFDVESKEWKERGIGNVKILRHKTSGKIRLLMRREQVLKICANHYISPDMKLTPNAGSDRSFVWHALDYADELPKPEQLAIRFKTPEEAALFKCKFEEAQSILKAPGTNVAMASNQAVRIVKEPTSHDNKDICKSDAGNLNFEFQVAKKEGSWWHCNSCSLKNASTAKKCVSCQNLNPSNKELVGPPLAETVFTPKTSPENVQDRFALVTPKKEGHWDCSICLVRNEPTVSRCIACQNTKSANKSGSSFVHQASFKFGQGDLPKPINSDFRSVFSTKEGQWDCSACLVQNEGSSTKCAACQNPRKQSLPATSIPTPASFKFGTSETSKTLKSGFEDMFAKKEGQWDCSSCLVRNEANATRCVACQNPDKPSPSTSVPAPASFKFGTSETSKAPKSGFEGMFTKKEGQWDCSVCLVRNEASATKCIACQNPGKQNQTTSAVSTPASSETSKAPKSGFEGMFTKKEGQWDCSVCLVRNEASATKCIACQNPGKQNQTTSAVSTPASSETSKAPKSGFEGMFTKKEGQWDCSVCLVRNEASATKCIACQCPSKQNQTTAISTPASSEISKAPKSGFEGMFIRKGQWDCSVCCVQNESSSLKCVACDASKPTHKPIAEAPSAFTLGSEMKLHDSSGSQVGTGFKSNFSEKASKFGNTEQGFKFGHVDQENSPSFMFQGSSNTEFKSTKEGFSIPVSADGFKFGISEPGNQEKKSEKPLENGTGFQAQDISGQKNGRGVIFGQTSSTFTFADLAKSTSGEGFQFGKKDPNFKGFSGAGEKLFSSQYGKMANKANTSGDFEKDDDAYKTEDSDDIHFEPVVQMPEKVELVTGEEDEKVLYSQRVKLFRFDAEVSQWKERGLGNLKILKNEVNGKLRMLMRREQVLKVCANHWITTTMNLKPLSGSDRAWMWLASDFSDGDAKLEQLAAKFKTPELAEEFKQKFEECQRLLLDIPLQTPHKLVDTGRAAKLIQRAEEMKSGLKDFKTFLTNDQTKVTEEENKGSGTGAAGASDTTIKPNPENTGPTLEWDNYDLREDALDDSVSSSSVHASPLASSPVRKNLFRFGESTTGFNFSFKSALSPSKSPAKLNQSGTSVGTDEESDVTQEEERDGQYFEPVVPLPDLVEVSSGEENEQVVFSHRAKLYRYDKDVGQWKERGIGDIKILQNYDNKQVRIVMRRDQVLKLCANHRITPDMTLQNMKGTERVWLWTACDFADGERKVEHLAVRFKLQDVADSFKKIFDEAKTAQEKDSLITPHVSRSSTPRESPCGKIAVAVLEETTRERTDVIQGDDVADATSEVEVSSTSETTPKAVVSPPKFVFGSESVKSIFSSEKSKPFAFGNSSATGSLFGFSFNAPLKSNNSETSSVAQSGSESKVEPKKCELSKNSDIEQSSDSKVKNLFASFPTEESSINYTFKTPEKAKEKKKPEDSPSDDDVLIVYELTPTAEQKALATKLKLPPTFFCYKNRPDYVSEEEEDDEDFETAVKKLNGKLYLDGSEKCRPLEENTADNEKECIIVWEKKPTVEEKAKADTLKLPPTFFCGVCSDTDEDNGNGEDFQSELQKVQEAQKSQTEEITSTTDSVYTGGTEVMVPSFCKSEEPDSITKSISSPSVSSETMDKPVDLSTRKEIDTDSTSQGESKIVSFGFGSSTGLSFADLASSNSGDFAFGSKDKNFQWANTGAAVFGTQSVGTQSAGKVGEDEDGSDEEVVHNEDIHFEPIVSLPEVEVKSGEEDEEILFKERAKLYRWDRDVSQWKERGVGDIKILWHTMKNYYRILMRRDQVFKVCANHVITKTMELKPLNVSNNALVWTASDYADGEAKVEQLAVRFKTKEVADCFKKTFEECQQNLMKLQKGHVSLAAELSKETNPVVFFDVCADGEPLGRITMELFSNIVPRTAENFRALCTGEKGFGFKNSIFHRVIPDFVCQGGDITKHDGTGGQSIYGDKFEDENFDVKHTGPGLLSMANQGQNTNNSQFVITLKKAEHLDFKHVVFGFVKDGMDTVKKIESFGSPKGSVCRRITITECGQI
UniProt P42224: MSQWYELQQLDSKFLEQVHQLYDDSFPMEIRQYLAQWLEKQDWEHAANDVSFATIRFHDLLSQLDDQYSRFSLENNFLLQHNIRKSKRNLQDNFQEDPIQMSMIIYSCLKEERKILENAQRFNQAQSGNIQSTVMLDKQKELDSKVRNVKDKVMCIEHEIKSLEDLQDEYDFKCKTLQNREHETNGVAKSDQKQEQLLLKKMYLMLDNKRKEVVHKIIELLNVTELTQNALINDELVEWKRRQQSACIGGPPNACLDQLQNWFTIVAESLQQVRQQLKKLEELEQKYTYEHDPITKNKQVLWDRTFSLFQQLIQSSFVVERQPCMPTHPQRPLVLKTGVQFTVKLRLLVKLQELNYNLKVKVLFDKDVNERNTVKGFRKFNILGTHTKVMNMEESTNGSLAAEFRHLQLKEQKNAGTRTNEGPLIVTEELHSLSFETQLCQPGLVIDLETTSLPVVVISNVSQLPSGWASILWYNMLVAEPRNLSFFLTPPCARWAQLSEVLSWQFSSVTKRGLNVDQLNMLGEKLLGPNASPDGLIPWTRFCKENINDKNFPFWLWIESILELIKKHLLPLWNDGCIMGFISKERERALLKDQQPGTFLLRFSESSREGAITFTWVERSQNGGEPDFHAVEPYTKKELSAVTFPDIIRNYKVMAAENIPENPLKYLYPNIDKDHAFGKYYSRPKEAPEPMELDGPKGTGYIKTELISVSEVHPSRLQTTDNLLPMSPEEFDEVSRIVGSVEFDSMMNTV
UniProt P23458: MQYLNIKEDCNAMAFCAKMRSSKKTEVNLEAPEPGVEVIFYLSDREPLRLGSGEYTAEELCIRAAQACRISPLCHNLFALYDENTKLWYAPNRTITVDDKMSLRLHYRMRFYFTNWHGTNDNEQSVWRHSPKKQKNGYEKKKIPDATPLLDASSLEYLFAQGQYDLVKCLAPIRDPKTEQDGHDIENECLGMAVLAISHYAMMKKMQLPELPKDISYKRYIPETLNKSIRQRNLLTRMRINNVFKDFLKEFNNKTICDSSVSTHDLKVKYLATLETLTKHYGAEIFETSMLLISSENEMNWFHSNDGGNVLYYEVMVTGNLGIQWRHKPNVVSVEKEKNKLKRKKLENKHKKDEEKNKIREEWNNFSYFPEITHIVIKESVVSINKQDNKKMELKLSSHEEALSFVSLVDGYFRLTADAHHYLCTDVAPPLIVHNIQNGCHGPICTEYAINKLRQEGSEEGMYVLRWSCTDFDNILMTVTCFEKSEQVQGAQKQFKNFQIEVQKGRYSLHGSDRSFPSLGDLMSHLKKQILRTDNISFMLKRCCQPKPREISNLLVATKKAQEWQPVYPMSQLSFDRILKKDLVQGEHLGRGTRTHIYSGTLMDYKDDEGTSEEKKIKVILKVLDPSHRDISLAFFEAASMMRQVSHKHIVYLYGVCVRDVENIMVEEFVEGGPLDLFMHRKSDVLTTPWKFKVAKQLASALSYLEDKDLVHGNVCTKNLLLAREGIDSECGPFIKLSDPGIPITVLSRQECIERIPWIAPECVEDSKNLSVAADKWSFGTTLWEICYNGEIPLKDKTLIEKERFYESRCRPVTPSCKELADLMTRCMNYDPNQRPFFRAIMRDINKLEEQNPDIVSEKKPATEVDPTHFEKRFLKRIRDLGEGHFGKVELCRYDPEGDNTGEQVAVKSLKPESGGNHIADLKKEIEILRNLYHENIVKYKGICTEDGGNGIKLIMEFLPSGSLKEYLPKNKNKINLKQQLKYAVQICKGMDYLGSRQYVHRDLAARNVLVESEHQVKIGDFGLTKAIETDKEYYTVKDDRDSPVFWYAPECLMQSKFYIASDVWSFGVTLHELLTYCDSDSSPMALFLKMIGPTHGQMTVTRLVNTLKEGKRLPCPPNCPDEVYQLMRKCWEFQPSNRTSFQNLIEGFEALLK

Results are given in words; binding and its absence hold for the method and conditions named. In cells and extracts the contact can be indirect. Some binding calls cover weakened binding; strength is not graded here.

Assay [1] has as its target Ran Binding Protein 2 (RanBP2), endogenous in unmodified HEK293 cells (human (endogenous in HEK293)) (UniProt P49792). The assay is described as follows: co-IP; anti-RanBP2 immunoprecipitation (rabbit IgG as negative control) from lysates of HEK293 cells transfected with STAT1-Flag, blot for Flag.
In assay [2] the target is Flag tagged STAT1 (STAT1-Flag) (UniProt P42224). The assay can be described thus: co-IP; anti-Flag immunoprecipitation of STAT1-Flag from lysates of transfected HEK293 cells (unmodified or RanBP2-dE3-1), blot for endogenous RanBP2; with or without co-expressed His6-SUMO2; with or without 1000 U/mL IFN-α for 30 min.
The target in assay [3] is Janus kinase 1 (JAK1), endogenous in HEK293 cells (human (endogenous in HEK293)) (UniProt P23458). The assay is described as follows: co-IP; mouse anti-JAK1 immunoprecipitation (mouse IgG as negative control) from lysates of unmodified and RanBP2-dE3-1 HEK293 cells, mock treated or 1000 U/mL IFN-α for 30 min, blot for endogenous STAT1.

For “Flag tagged STAT1 (STAT1-Flag) (from UniProt P42224 1-750)”, the binding result in assay [1] was “binds”.

As for “Ran Binding Protein 2 (RanBP2), endogenous in unmodified HEK293 cells (from UniProt P49792 1-3224)”, the binding result in assay [2] is given as “binds”.

With “STAT1, endogenous in HEK293 cells (from UniProt P42224 1-750)”, in assay [3], the binding entry was “binds”.
